# Measured values published in the supplement of paper PMC10849652.
# Sequences of proteins named here, by UniProt entry; tags and fusion partners are left off. A change or cut given only in a name is not applied to a line headed by its entry.
# UniProt Q96C90: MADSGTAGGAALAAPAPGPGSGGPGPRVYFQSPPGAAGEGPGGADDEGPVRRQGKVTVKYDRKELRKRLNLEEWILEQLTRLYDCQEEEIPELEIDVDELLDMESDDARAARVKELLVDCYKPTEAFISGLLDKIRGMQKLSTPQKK
# UniProt Q5H9R7: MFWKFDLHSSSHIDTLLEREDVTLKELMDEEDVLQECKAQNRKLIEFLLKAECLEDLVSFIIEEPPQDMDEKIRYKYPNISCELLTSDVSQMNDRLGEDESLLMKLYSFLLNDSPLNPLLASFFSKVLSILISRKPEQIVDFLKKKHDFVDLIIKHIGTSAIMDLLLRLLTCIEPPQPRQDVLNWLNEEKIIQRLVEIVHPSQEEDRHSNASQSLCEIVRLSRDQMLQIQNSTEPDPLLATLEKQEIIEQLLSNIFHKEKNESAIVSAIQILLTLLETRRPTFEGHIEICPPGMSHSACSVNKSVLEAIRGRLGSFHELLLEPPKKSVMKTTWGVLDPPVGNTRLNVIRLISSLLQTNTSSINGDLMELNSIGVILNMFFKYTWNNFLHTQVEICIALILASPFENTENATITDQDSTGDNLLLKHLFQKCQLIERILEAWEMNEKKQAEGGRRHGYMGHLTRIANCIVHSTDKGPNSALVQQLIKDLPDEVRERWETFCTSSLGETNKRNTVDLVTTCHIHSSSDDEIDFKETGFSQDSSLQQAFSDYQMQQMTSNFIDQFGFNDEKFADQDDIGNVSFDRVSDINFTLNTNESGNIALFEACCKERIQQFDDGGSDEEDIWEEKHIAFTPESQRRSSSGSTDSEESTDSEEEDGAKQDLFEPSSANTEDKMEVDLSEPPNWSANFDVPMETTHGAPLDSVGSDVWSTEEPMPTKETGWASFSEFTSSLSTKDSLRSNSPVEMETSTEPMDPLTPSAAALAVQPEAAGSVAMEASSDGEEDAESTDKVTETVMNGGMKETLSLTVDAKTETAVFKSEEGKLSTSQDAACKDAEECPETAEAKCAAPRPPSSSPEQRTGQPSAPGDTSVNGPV
# UniProt Q14558: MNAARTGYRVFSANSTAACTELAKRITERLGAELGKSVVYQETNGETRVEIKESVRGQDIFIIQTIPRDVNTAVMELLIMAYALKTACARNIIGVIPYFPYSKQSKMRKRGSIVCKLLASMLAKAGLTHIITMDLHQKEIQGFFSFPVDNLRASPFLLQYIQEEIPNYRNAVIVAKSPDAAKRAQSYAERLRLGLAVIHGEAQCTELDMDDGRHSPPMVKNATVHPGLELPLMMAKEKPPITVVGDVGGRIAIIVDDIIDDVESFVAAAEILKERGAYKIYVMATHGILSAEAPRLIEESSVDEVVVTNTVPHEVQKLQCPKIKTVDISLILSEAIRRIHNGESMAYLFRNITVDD
# UniProt K7ELL7: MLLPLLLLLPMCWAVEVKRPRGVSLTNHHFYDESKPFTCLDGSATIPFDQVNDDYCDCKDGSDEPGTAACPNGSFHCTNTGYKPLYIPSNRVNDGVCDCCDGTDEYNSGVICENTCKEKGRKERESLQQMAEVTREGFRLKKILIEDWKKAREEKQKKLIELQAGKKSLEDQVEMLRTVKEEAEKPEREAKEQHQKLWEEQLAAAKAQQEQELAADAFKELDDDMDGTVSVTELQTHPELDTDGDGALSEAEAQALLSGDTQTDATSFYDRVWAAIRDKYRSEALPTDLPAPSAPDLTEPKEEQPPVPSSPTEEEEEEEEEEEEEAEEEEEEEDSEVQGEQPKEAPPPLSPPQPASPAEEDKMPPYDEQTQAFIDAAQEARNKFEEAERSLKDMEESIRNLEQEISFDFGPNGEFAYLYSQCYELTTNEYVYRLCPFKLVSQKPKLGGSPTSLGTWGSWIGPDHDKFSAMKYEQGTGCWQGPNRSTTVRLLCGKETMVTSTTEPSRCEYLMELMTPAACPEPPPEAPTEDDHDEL
# UniProt Q99633: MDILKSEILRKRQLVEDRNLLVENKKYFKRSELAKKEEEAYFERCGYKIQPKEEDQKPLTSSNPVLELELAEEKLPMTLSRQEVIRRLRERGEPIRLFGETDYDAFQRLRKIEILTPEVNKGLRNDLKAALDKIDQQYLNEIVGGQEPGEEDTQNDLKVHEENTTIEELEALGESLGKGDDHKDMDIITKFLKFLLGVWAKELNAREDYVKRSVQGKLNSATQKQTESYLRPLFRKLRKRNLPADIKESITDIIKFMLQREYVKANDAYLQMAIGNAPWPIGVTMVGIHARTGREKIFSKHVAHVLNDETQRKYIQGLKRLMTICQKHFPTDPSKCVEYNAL
# UniProt P07478, whole entry, looked up: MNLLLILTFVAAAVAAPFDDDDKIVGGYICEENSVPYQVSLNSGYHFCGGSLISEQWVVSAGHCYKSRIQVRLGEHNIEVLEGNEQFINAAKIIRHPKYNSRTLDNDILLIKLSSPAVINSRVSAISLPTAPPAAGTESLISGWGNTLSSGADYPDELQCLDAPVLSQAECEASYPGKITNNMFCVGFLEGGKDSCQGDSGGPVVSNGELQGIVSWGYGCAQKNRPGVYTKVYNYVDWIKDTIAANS
# UniProt Q9BSG0: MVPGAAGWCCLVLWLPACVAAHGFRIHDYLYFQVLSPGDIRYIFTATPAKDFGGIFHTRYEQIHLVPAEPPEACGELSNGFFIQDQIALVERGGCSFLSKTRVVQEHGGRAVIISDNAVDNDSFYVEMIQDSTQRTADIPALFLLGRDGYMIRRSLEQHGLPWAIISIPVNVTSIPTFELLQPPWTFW
# UniProt Q9UNN8: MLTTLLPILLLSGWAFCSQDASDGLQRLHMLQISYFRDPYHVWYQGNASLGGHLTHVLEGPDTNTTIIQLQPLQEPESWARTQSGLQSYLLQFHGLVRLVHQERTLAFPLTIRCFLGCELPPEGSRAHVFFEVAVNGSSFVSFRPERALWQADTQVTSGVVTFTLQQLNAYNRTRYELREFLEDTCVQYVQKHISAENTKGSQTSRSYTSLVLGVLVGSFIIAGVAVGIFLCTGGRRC
# UniProt O75569: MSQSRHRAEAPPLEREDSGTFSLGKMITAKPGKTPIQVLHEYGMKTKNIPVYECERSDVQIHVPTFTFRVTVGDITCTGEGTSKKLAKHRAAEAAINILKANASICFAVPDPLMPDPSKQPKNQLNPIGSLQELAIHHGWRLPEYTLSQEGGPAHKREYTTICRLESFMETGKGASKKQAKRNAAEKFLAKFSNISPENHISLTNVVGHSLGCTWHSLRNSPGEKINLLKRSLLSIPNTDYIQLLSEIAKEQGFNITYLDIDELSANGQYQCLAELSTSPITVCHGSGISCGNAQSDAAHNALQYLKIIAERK
# UniProt P62136, whole entry, looked up: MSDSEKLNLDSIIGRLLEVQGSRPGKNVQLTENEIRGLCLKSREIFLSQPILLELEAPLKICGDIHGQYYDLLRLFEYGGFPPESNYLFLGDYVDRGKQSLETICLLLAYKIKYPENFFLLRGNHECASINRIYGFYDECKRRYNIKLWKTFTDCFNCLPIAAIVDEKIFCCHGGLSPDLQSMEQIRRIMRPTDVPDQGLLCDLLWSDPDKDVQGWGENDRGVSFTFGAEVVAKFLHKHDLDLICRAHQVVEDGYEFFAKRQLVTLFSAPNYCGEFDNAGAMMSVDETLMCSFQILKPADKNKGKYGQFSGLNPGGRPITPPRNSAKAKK
# UniProt P05771, whole entry, looked up: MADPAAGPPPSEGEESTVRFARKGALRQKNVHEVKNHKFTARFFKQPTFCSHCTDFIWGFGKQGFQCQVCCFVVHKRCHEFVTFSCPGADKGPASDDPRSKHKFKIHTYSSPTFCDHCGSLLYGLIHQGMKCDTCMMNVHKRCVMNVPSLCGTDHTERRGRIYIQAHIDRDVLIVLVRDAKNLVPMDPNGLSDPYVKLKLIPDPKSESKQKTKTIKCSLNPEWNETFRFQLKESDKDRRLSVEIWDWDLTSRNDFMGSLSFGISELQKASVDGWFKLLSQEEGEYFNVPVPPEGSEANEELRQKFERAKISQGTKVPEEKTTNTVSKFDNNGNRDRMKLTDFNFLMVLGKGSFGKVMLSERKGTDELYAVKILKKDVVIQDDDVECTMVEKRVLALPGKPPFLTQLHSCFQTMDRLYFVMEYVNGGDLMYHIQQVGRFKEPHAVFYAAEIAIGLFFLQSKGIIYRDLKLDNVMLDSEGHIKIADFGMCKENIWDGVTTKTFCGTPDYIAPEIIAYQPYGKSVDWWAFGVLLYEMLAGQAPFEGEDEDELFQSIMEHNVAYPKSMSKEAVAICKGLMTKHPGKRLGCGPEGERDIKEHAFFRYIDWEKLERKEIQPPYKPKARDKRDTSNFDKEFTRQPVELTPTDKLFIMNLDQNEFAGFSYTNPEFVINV
# UniProt Q96A00: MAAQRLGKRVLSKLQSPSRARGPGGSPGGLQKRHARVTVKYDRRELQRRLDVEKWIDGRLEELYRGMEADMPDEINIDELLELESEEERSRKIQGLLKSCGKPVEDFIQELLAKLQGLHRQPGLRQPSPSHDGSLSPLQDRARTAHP
# UniProt Q8TAP8: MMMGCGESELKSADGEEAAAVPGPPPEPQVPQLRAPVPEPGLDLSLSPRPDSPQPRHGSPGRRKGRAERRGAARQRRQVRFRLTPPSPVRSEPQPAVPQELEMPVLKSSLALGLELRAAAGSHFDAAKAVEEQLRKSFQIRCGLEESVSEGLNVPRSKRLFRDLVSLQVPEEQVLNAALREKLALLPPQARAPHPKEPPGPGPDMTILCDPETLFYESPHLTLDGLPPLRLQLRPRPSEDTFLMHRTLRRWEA
# UniProt P31321, whole entry, looked up: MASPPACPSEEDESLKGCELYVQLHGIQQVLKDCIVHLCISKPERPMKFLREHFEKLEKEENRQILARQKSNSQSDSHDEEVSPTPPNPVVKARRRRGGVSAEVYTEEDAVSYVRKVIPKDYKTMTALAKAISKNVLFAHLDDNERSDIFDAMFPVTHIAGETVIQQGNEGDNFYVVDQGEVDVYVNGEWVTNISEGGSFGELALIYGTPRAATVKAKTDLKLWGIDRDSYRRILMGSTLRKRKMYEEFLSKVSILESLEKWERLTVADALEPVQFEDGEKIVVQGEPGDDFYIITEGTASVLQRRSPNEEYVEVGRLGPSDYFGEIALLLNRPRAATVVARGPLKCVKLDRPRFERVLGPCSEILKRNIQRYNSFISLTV
# UniProt Q05655: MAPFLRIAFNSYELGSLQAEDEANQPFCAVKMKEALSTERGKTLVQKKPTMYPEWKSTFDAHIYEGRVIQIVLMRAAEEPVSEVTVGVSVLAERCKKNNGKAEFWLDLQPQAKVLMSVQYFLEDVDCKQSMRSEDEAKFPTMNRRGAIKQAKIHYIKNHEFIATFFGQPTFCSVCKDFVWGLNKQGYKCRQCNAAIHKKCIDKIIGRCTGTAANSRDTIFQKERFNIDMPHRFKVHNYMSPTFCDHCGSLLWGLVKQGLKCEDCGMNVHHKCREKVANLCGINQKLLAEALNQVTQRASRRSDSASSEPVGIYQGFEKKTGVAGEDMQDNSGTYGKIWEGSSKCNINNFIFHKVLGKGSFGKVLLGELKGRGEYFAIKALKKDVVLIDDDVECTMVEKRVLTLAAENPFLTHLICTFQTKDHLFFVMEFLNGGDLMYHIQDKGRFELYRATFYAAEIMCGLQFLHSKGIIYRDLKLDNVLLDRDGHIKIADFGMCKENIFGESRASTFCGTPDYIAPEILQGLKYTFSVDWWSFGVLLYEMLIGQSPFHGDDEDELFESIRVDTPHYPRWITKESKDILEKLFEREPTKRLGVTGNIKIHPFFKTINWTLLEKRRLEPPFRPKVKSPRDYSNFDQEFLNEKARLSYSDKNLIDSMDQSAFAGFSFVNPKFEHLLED
# UniProt Q9UPN7: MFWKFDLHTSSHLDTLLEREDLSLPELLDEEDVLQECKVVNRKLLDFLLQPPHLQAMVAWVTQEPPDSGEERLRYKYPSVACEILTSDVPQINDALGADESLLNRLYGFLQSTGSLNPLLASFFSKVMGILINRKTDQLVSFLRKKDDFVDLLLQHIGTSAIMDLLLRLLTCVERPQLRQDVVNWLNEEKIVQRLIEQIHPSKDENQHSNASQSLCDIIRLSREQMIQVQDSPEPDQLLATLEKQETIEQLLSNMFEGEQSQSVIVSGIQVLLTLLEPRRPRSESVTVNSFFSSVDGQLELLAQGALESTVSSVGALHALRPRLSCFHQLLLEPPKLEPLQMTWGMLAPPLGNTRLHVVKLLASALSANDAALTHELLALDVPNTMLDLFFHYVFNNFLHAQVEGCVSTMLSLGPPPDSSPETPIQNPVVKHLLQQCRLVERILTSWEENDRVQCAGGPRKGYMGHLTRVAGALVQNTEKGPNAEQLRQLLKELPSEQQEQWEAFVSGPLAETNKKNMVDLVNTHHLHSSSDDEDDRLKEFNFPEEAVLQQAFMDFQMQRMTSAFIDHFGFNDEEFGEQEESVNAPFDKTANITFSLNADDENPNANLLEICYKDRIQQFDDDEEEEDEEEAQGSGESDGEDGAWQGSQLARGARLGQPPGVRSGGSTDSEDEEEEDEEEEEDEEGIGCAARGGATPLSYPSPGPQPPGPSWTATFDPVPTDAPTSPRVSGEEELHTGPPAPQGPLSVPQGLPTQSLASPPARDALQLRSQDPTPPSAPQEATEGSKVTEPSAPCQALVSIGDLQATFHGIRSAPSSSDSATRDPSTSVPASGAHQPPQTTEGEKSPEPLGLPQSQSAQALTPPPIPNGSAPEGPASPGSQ
# This is one part of the list.
# Compound: C[C@H](Nc1ncnc2nc[nH]c12)c1cc2cccc(Cl)c2c(=O)n1-c1ccccc1 [duvelisib]
# Test: log2 fold change, soluble protein after heating vs DMSO (PISA); higher = thermal stabilisation; K562 cells, 10 uM, 30 min; active = over 0.2 and 3.5 SD of the protein, either way, in both replicates (recomputed)
# Procedure, shortened: (§1)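 For each measurement, 10 μM compound was applied for 30 min to K562 cells at 2×10^6 cells/mL. Aliquots were heated for 3 min across 48°C-58°C, pooled, and extracted in PBS with 0.5% NP-40 at 4°C; the supernatant after 21,000xg for 90 min was soluble protein. This was quantified by TMTpro 16plex LC-MS/MS with channel sums equalised, and thermal stability was reported relative to control samples from duplicates, on a log2 fold-change scale.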
row,Target,log2 fold change
1,PPP1R14B (UniProt Q96C90),inactive: -0.068
2,PPP6R3 isoform 5 (UniProt Q5H9R7),inactive: 0.021
3,PRPSAP1 isoform 2 (UniProt Q14558),inactive: -0.036
4,PRKCSH (UniProt K7ELL7),inactive: -0.03
5,PRPF18 (UniProt Q99633),inactive: -0.037
6,PRKDC (UniProt P78527),inactive: 0.004
7,PRSS2 (UniProt P07478),inactive: 0.057
8,PRADC1 (UniProt Q9BSG0),inactive: 0.031
9,PROCR (UniProt Q9UNN8),inactive: 0.105
10,PRKRA (UniProt O75569),inactive: -0.252

# Compound: Cc1cc(Nc2cc(CN3CCOCC3)c3nc(C)c(Cc4ccc(Cl)cc4F)n3n2)n[nH]1 [gandotinib]
# Test: as above
# Procedure, shortened: as §1
row,Target,log2 fold change
1,PPP1CA (UniProt P62136),inactive: 0.026
2,PRKAG1 isoform 3 (UniProt P54619),inactive: -0.249
3,PPP6R3 isoform 5 (UniProt Q5H9R7),inactive: -0.022
4,PRKAR2B (UniProt P31323),inactive: -0.271
5,PRPSAP1 isoform 2 (UniProt Q14558),inactive: 0.042
6,PRKCQ (UniProt Q04759),inactive: -0.165
7,PPM1G (UniProt O15355),inactive: -0.026
8,PRKCB isoform 2 (UniProt P05771),inactive: -0.079
9,PRMT8 (UniProt Q9NR22),inactive: -0.047
10,PPP2R5C isoform 4 (UniProt Q13362),inactive: -0.011
11,PRKAB2 (UniProt O43741),active: -0.484
12,PRPF18 (UniProt Q99633),inactive: 0.034
13,PRKCA (UniProt P17252),inactive: -0.227
14,PRKDC (UniProt P78527),inactive: -0.063
15,PPP2R5A (UniProt Q15172),inactive: -0.21
16,PPP1R14A (UniProt Q96A00),inactive: 0.106
17,PRKACA (UniProt P17612),inactive: -0.105
18,PRKAA1 isoform 2 (UniProt Q13131),active: -0.235
19,PRMT7 (UniProt Q9NVM4),inactive: 0.067
20,PPP1R35 (UniProt Q8TAP8),inactive: 0.044
21,PRPF4B (UniProt Q13523),inactive: 0.007
22,PRKAR2A (UniProt P13861),inactive: -0.02
23,PRKAR1B (UniProt P31321),inactive: 0.095
24,PRADC1 (UniProt Q9BSG0),inactive: -0.095
25,PROCR (UniProt Q9UNN8),inactive: -0.084
26,PRKCD (UniProt Q05655),inactive: -0.056
27,PPP1R12A (UniProt O14974),inactive: 0.021
28,PRKRA (UniProt O75569),inactive: 0.034
29,PPP6R1 (UniProt Q9UPN7),inactive: -0.078

# Compound: Cc1cc(Nc2cc(N3CCN(C)CC3)nc(Sc3ccc(NC(=O)C4CC4)cc3)n2)n[nH]1 [tozasertib]
# Test: as above
# Procedure, shortened: as §1
row,Target,log2 fold change
1,PPP1R14B (UniProt Q96C90),inactive: 0.176
2,PPP6R3 isoform 5 (UniProt Q5H9R7),inactive: 0.014
3,PRPSAP1 isoform 2 (UniProt Q14558),inactive: 0.008
4,PRKCSH (UniProt K7ELL7),inactive: -0.072
5,PRPF18 (UniProt Q99633),inactive: -0.148
6,PRKDC (UniProt P78527),inactive: -0.002
7,PRSS2 (UniProt P07478),inactive: -0.09
8,PRADC1 (UniProt Q9BSG0),inactive: 0.066
9,PROCR (UniProt Q9UNN8),inactive: 0.037
10,PRKRA (UniProt O75569),inactive: 0.138

# Compound: Cc1cc(SCc2sc(-c3ccc(C(F)(F)F)cc3)nc2C)ccc1OCC(=O)O
# Test: as above
# Procedure, shortened: as §1
row,Target,log2 fold change
1,PPP1CA (UniProt P62136),inactive: -0.045
2,PPP1R14B (UniProt Q96C90),inactive: 0.272
3,PRKAG1 isoform 3 (UniProt P54619),inactive: 0.004
4,PPP6R3 isoform 5 (UniProt Q5H9R7),inactive: -0.006
5,PRKAR2B (UniProt P31323),inactive: 0.112
6,PRPSAP1 isoform 2 (UniProt Q14558),inactive: -0.059
7,PRKCQ (UniProt Q04759),inactive: 0.023
8,PPM1G (UniProt O15355),inactive: 0.171
9,PRKCB isoform 2 (UniProt P05771),inactive: 0.032
10,PRMT8 (UniProt Q9NR22),inactive: 0.045
11,PPP2R5C isoform 4 (UniProt Q13362),inactive: -0.01
12,PRKCSH (UniProt K7ELL7),inactive: -0.009
13,PRKAB2 (UniProt O43741),inactive: 0.051
14,PRPF18 (UniProt Q99633),inactive: -0.056
15,PRKCA (UniProt P17252),inactive: 0.232
16,PRKDC (UniProt P78527),inactive: 0.021

row,Target,log2 fold change
1,PPP2R5A (UniProt Q15172),inactive: 0.072
2,PPP1R14A (UniProt Q96A00),inactive: -0.049
3,PRKACA (UniProt P17612),inactive: 0.112
4,PRKAA1 isoform 2 (UniProt Q13131),inactive: -0.036
5,PRMT7 (UniProt Q9NVM4),inactive: 0.12
6,PPP1R35 (UniProt Q8TAP8),inactive: 0.025
7,PRPF4B (UniProt Q13523),inactive: 0.01
8,PRKAR2A (UniProt P13861),inactive: 0.023
9,PRSS2 (UniProt P07478),inactive: -0.035
10,PRKAR1B (UniProt P31321),inactive: -0.011
11,PRADC1 (UniProt Q9BSG0),inactive: -0.076
12,PROCR (UniProt Q9UNN8),inactive: -0.238
13,PRKCD (UniProt Q05655),inactive: 0.007
14,PPP1R12A (UniProt O14974),inactive: 0.029
15,PRKRA (UniProt O75569),inactive: 0.078
16,PPP6R1 (UniProt Q9UPN7),inactive: -0.01
